From PubChem BioAssay AID2685 (National Center for Advancing Translational Sciences (NCATS), 2010)
The list shows a part of the results. Shown are side measurements of this screen, not its main read-out; they come without a call. The list favours compounds with an active or inconclusive main result. The note in brackets gives the kind of curve behind each potency; many fits are weak.

Test: qHTS Assay for Lipid Storage Modulators in Drosophila S3 Cells;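 on cell number change: cells counted by Cell Tracker Red CMTPX staining in the red channel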
Details: BODIPY lipid droplet fluorescence, 18-24 h; for cell number change: measured here: cell count max response, cells fed with added oleic acid
Procedure, shortened: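 Drosophila S3 cells loaded with oleic acid (400 uM, as added) and compounds at several concentrations; lipid droplets imaged by 488-nm laser-scanning cytometry, 500–530 nm intensity and object ratio to cell channel. Percent activity normalized to 20 uM Triacsin C.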

[1] = measured here: lipid fluorescence (Fed channel) AC50, cells fed with added oleic acid
[2] = measured here: cell number channel AC50, cells fed with added oleic acid

Q: Which AC50 [1] does the source give for `CC(C)/C(=N/Nc1ccccc1[N+](=O)[O-])c1ccccc1` here?
A: 2.59 µM [falling, partial curve]

Q: Which cell number change does the source give for `NC(=O)CC(NC(=O)c1ccc(Br)cc1)c1ccc(NCc2ccc(F)c(F)c2)c([N+](=O)[O-])c1` (stereo not drawn) here?
A: 23.9%

Q: And the AC50 [1]?
A: 13 µM [rising, partial curve, poor fit]

Q: With `COc1ccccc1N(C(=O)CN1C(=O)c2ccccc2S1(=O)=O)C(C(=O)NCC1CCCO1)c1ccc(F)cc1` (stereo not drawn) as the molecule, how does the cell number change read?
A: -4.46%

Q: What about the AC50 [1] of the same molecule?
A: 29.1 µM [falling, single point]

Q: For `Cc1cc2cc(CCNC(=O)CC(C)C)c(=O)[nH]c2cc1C`, which cell number change is on record?
A: 3.19%

Q: And the AC50 [1]?
A: 18.4 µM [rising, single point]

Q: For `Cc1cccc(C)c1NC(=O)CNC(=O)c1ccc(N2CCCC2)c([N+](=O)[O-])c1`, which cell number change is on record?
A: -21.4%

Q: And the AC50 [2]?
A: 0.146 µM [falling, full curve, poor fit]

Q: What about the AC50 [1] of the same molecule?
A: 0.231 µM [falling, full curve]

Q: Which results are given for `Cc1ccccc1COC(=O)CNC(=O)c1sc2ccccc2c1Cl`?
A: cell number change: -67%; AC50 [2]: 29.1 µM [falling, single point]

Q: With `Fc1ccc(-n2cc(CNCCc3ccncc3)c(-c3ccccc3Cl)n2)cc1` as the molecule, how does the cell number change read?
A: -22.3%

Q: What about the AC50 [1] of the same molecule?
A: 0.116 µM [falling, full curve, poor fit]

Q: Which cell number change does the source give for `Cc1cccn2c(=O)c(/C=C(\C#N)C(=O)NC3CCS(=O)(=O)C3)c(N3CCC(C)CC3)nc12` (stereo not drawn) here?
A: -23.8%

Q: And the AC50 [2]?
A: 0.82 µM [rising, partial curve, poor fit]

Q: What about the AC50 [1] of the same molecule?
A: 1.16 µM [rising, full curve, poor fit]

Q: With `Cc1ccc(C)c(NC(=O)C2CCCN(c3cnccn3)C2)c1` (stereo not drawn) as the molecule, how does the cell number change read?
A: 10.6%

Q: What about the AC50 [1] of the same molecule?
A: 6.51 µM [rising, single point]

Q: Which results are given for `CCc1ccccc1S(=O)(=O)Cc1ccc(C(=O)NCc2cccs2)o1`?
A: cell number change: 22%; AC50 [2]: 0.00461 µM [rising, full curve, poor fit]; AC50 [1]: 0.00517 µM [rising, full curve, poor fit]

Q: With `S=C(NCCCc1ccccc1)Nc1ccc(Br)cc1` as the molecule, how does the cell number change read?
A: 18.5%

Q: And the AC50 [1]?
A: 29.1 µM [falling, single point]

Q: With `O=C(CCN1CCCC1=O)NC1CCCc2c1cnn2-c1ccc(F)cc1F` (stereo not drawn) as the molecule, how does the AC50 [1] read?
A: 6.51 µM [rising, single point]

Q: Which results are given for `Cn1cnc2cc(NCc3ccc(Cl)cc3)ccc21`?
A: cell number change: -41.7%; AC50 [2]: 4.61 µM [falling, partial curve, poor fit]; AC50 [1]: 4.11 µM [falling, full curve]

Q: Which results are given for `CSc1ncc(CN2CCC(C(=O)Nc3cccc(-c4cscn4)c3)CC2)cn1`?
A: cell number change: -20.2%; AC50 [1]: 29.1 µM [falling, partial curve, poor fit]

Q: For `CCOC(=O)c1nn(-c2ccc(C)cc2)c(C)c1C(C)=O`, which cell number change is on record?
A: 47.8%

Q: And the AC50 [2]?
A: 16.4 µM [rising, partial curve, poor fit]

Q: And the AC50 [1]?
A: 1.16 µM [rising, full curve]

Q: With `CCc1ccc2[nH]c(=O)c(CN(Cc3nnnn3C3CCCC3)C3CCCCC3)cc2c1` as the molecule, how does the cell number change read?
A: -16%

Q: Which results are given for `O=S(=O)(/C(=C/c1ccc(C(F)(F)F)cc1)c1nc2ccccc2[nH]1)c1ccccc1`?
A: cell number change: -32.6%; AC50 [2]: 18.4 µM [falling, single point]; AC50 [1]: 23.1 µM [falling, partial curve]

Q: For `Cc1cccc(NC(=O)/C(C#N)=C\c2cn(CC(=O)O)c3ccccc23)c1`, which cell number change is on record?
A: -2.55%

Q: And the AC50 [1]?
A: 16.4 µM [falling, single point]

Q: With `CCCS(=O)(=O)N1CCCC(C(=O)Nc2ccc3c(c2)CCC3)C1` (stereo not drawn) as the molecule, how does the cell number change read?
A: 20.6%

Q: And the AC50 [1]?
A: 20.6 µM [rising, single point]

Q: For `CCOc1ccc(NC(=O)CCC(=O)Nc2nnc(CC)s2)cc1`, which cell number change is on record?
A: 7.55%

Q: And the AC50 [1]?
A: 29.1 µM [falling, single point]

Q: For `COc1ccc(Cl)cc1C(=O)NCCN1CCOCC1`, which cell number change is on record?
A: -4.21%

Q: What about the AC50 [1] of the same molecule?
A: 32.6 µM [rising, single point]

Q: Which results are given for `Cc1ccc2ncccc2c1`?
A: cell number change: 13.6%; AC50 [1]: 3.66 µM [rising, partial curve]

Q: Which cell number change does the source give for `Cc1ccc(S(=O)(=O)N[C@@H](Cc2ccccc2)C(=O)N2CCC(C(=O)N[C@@H](CC(C)C)C(=O)O)CC2)cc1` here?
A: 12%

Q: What about the AC50 [1] of the same molecule?
A: 13 µM [rising, partial curve, poor fit]

Q: Which cell number change does the source give for `CCC(C)n1cnc2c(c1=O)c1nc3ccccc3nc1n2-c1ccc2c(c1)OCCO2` (stereo not drawn) here?
A: 8.78%

Q: Which cell number change does the source give for `O=C(C[n+]1ccc(C(=O)NCc2ccccc2)cc1)c1ccc(Cl)cc1` here?
A: 5.48%

Q: And the AC50 [1]?
A: 7.31 µM [rising, full curve]

Q: With `CCOC(=O)C1CCN(c2c(C(=O)c3ccccc3)cnc3ccc(CC)cc23)CC1` as the molecule, how does the cell number change read?
A: 55%

Q: And the AC50 [2]?
A: 20.6 µM [rising, partial curve]

Q: What does the source list for `CC(C)OC(=O)c1c(F)c(F)c(N2CCOCC2)c(F)c1F`?
A: cell number change: -34.8%; AC50 [2]: 29.1 µM [falling, single point]; AC50 [1]: 0.92 µM [falling, full curve, poor fit]

Q: With `COc1ccccc1CNC(=O)C(=O)Nc1ccc(C(=O)N2CCC(C)CC2)cc1` as the molecule, how does the cell number change read?
A: 22.2%

Q: What about the AC50 [1] of the same molecule?
A: 29.1 µM [rising, single point]

Q: Which cell number change does the source give for `COc1ccc(-c2sc3cc(OC)c(OC)cc3c2C#CCCO)cc1` here?
A: -31.8%

Q: And the AC50 [2]?
A: 25.9 µM [falling, single point]

Q: What about the AC50 [1] of the same molecule?
A: 18.4 µM [falling, partial curve, poor fit]

Q: What does the source list for `CCOC(=O)C1CCCCN1Cc1cccc(C(F)(F)F)c1` (stereo not drawn)?
A: cell number change: 16.6%; AC50 [1]: 0.651 µM [falling, single point]

Q: Which results are given for `N#Cc1cc2c(nc1SCC(=O)NCc1ccc3c(c1)OCO3)CCCCC2`?
A: cell number change: 17.3%; AC50 [2]: 0.164 µM [rising, full curve, poor fit]; AC50 [1]: 0.517 µM [rising, partial curve]

Q: What does the source list for `COc1ccccc1NC(=O)CN1CCN(C(=O)c2ccco2)CC1`?
A: cell number change: -9.67%; AC50 [2]: 3.26 µM [rising, single point]; AC50 [1]: 2.91 µM [rising, single point]

Q: For `COC(=O)C1CCN(C(=O)COC(=O)c2cccc(NS(=O)(=O)c3ccccc3)c2)CC1`, which AC50 [2] is on record?
A: 0.259 µM [rising, partial curve, poor fit]

Q: Which cell number change does the source give for `CCC(C)NC(=O)Cn1cnc2sc(C)c(S(=O)(=O)N3CCN(c4ccccc4OC)CC3)c2c1=O` (stereo not drawn) here?
A: 3.6%

Q: What about the AC50 [1] of the same molecule?
A: 0.58 µM [rising, single point]
